Percent effect of library compounds

Measurements from “University of Dundee, Small-Polar-MMV Screening Library” (2021), ChEMBL document CHEMBL3988442.

Mtb cholesterol medium: 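Phenotypic screen: M. tuberculosis growth, cholesterol and DPPC medium, 4 days; the read-out is not stated. Compounds at 50 µM. The record gives no direction; compounds that gave an IC50 in retests scored well above the rest, so higher reads as more growth inhibition. Of about 69,000 compounds tested this way, about 370 (0.54%) reached 50% or more in at least one test.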
Mtb glucose medium: 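Whole-cell growth test on Mycobacterium tuberculosis, read after 3 days in glucose-containing 7H9 medium; the read-out is not stated. Concentration: 50 µM. Higher reads as more growth inhibition (inferred: compounds with an IC50 in retests scored well above the rest). Size under these conditions: about 69,000 compounds, about 760 of them at 50% or above in at least one test.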

Each number is a percent effect as filed.
The record does not define 0% and 100%; most values in the screen are far below 50% and negative numbers occur (in some assays of this library far below -100).
The compounds are a random part of those screened.
Two or more numbers in one place are separate tests of the same structure; such repeats can differ widely.

| compound | Mtb cholesterol medium | Mtb glucose medium |
|---|---|---|
| `COCCC(=O)N[C@H]1CC[C@H](Nc2nccc(-c3ccncc3)n2)C1` | -10.95% | -18.22% |
| `Cl.Cl.Cn1cc(C(=O)NCc2cncc3c2CCNC3)cn1` | 8.089% | -28.43% |
| `CC(=O)c1c(F)cccc1NC1CCN(C(=O)CC(C)C)CC1` | 6.66% and 2.232% | 5.847% |
| `CNS(=O)(=O)C1CCN(c2cc(C(C)C)nc(C(C)C)n2)C1` (stereo not shown) | -13.6% | -1.859% |
| `CN1CCCC(CNC(=O)N2CCN(Cc3ccon3)CC2)C1` (stereo not shown) | 5.211% | -12.91% |
| `CCN1CC2(CC1=O)CN(C(=O)N(C)C)CCN(S(C)(=O)=O)C2` (stereo not shown) | 14.33% | -3.672% and 8.477% |
| `O=C1NCCCCC1NS(=O)(=O)N1CCCCC1` (stereo not shown) | 0.3092% | 15.19% |
| `O=C(NCCc1coc(-c2ccc(F)cc2)n1)NC1CC1` | 1.904% | -7.092% |
| `O=C(NCc1ccc(OCC2CC2)nc1)Nc1c(F)cccc1F` | 4.311% | -1.779% |
| `Cn1c(CN2CCCCCC2)cc(=O)c(O)c1CN1CCCC1` | -5.355% | -26.75% |
| `COCCN1CCC(CN(CC2CCCO2)C(=O)CCNC(C)=O)CC1` (stereo not shown) | -11.44% | 8.22% and -3.7% |
| `c1ccc(CCN2CCOC(Cn3cccn3)C2)nc1` (stereo not shown) | 10.12% | 10.42% |
| `Cc1cc(CN2CCN(C(=O)NCCCc3cn[nH]c3C)CC2)on1` | -29.96% | -1.153% and -27.05% |
| `[H][C@]12CN(C)C(=O)[C@@]1([H])CN(C(=O)C1CCOC1)C2` (stereo partly shown) | -5.948% and -4.176% | -23.69% and -1.996% |
| `CNS(=O)(=O)c1ccc(CNC(=O)N2CCOC(C)C2)cc1` (stereo not shown) | -45.15% | -36.43% |
| `CCc1c(C)nc2cc(C3CCN(CCc4ccccc4)C3)nn2c1O` (stereo not shown) | 4.744% | 43.66% |
| `CCN(CC)C(=O)CSc1nc2c(cnn2CCO)c(=O)[nH]1` | -6.258% | 1.276% |
| `Cc1cc(C(=O)Nc2cccn(Cc3ccc(F)cc3)c2=O)no1` | 12.87% | 19.28% |
| `NC(=O)CN1CCCN(C(=O)Cc2ccc(F)c(Br)c2)CC1` | -8.467% | -9.045% |
| `O=C(O)C(F)(F)F.O=S1(=O)c2ccccc2C2(CCN(Cc3ccccc3)C2)N1CC1CC1` (stereo not shown) | -14.38% | 23.7% |
| `CCN1CC2(CC1=O)CN(Cc1ccco1)CCN(C(=O)C(C)C)C2.O=C(O)C(F)(F)F` (stereo not shown) | -13.85% | 2.596% |
| `CCNC(=O)COc1ccccc1N1CCCC(C)C1` (stereo not shown) | -0.8028% | 31.74% |
| `Nc1cccnc1N1CCC(C(F)(F)F)CC1` | -30.86% | -6.47% and 18.74% |
| `Cc1nccn1CCC1CCCCN1Cc1ccncc1` (stereo not shown) | -43.49% | 2.212% |
| `Cc1ccc(N2CCCN(C(=O)CC3C=CCC3)CC2)nn1` (stereo not shown) | -0.6294% | 0.232% and 7.806% |
| `Cc1c(NC(=O)c2ccc(Br)cc2)c(C(=O)N(C)C)nn1C` | -10.31% | 3.789% |
| `CN(C)CC1CN(Cc2coc(-c3ccccc3)n2)CCO1` (stereo not shown) | 1.618% | 4.549% |
| `COCCC(C)NC(=O)Nc1ccc(N2CCOC2=O)c(OC)c1` (stereo not shown) | 14.67% | 102.8% |
| `CC(=O)N1CCC(N2CCN(Cc3ccc(C)o3)C(CCO)C2)CC1` (stereo not shown) | 9.739% | 17.45% |
| `O=C(O)C(F)(F)F.[H][C@@]12CCCO[C@]1([H])[C@@H](NC(=O)c1cnn(C)c1)CN2Cc1nccs1` | -7.498% | 6.046% and 12.61% |
| `COc1ccc(CNc2nncs2)cc1F` | -15.82% | 0.5535% and -29.14% |
| `CCN1CCCN(C(=O)c2ccc(NC(=O)CC(C)C)c(C)c2)CC1` | 7.172% | -36.28% |
| `CC(Cn1cccn1)NCc1csc(-c2ccc(F)cc2)n1` (stereo not shown) | 34.28% | 36.71% |
| `[H][C@@]12CN(C(=O)NCC)C[C@]1([H])OCC(=O)N2Cc1cccnc1` | -28.51% | -2.389% and -24.87% |
| `COc1ccc2c(ccn2CCC(=O)NCc2ccc(C(=O)O)cc2)c1` | -3.92% | 6.254% |
| `COCCN1CCN(CCS(C)(=O)=O)CC1C` (stereo not shown) | -30.6% | -9.182% and -78.15% |
| `Cc1nc(C(=O)N2CCCC2c2c(C)nn(C)c2Cl)ccc1C#N` (stereo not shown) | -14.64% | 5.52% |
| `CN(C)c1ncnc2c1CCN(S(=O)(=O)c1cccc(Cl)c1Cl)C2` | -5.384% | 8.558% |
| `CN(CCC(C)(C)O)C(=O)C1CCC(=O)N(Cc2ccc(Cl)cc2)C1` (stereo not shown) | -4.181% and -9.236% | 14.55% |
| `[H][C@@]12CS(=O)(=O)C[C@]1([H])N(C(=O)c1ccc3c(c1)OCC(=O)N3)CCN2CC` | 11.45% | -6.672% |
| `[H][C@]12CCN(Cc3cnn(C)c3)[C@@]1([H])C[C@@H](C(=O)N1CCOCC1)O2` | 10.9% and -1.392% | 9.258% |
| `O=C(NCC1(O)CCCC1)c1ccc2nsnc2c1` | 9.081% | -19.63% |
| `CN1CCN(c2ccc3ccc(C(=O)N4CCCCO4)cn23)CC1.O=C(O)C(F)(F)F` | 4.776% | 34.2% and 2.262% |
| `COC(=O)C(CNC(=O)Nc1nncs1)Cc1ccc(F)cc1` (stereo not shown) | -9.508% | 16.7% |
| `Cn1cc(N2CCC3(CCCN(C(=O)c4ccnn4C)C3)C2=O)cn1` (stereo not shown) | 22.85% | -38.21% |
| `CN(C)CCN(C)c1nc(CCc2ccccc2)nc2c1cnn2C` | -8.044% | 27% and -8.839% |
| `[H][C@@]12OCCN(C(=O)CCOc3ccccc3)[C@@]1([H])CC[C@@H]2OC` | 4.941% | 11.24% |
| `Cc1nc(-c2cnn(C)c2)sc1C(=O)NCc1ccc(C)n1C` | 13.46% | 10.46% |

Some entries from above, unchanged:

CN1CCN(c2ccc3ccc(C(=O)N4CCCCO4)cn23)CC1.O=C(O)C(F)(F)F read Mtb cholesterol medium: 4.776%; Mtb glucose medium: 34.2% and 2.262%.
Cc1c(NC(=O)c2ccc(Br)cc2)c(C(=O)N(C)C)nn1C read Mtb cholesterol medium: -10.31%; Mtb glucose medium: 3.789%.
Cl.Cl.Cn1cc(C(=O)NCc2cncc3c2CCNC3)cn1 read Mtb cholesterol medium: 8.089%; Mtb glucose medium: -28.43%.
CC(=O)c1c(F)cccc1NC1CCN(C(=O)CC(C)C)CC1 read Mtb cholesterol medium: 6.66% and 2.232%; Mtb glucose medium: 5.847%.
[H][C@@]12CS(=O)(=O)C[C@]1([H])N(C(=O)c1ccc3c(c1)OCC(=O)N3)CCN2CC read Mtb cholesterol medium: 11.45%; Mtb glucose medium: -6.672%.
CC(Cn1cccn1)NCc1csc(-c2ccc(F)cc2)n1 (stereo not shown) read Mtb cholesterol medium: 34.28%; Mtb glucose medium: 36.71%.